± gives the standard deviation of the averaged measurements. The list shows a part of the results. These are raw signals, not scaled to a control.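 In this assay, LPS from bacteria induces microglia-mediated neuronal death in a neuron–microglia–astrocyte co-culture, a model of inflammatory neurodegeneration. Compounds were compared against same-plate DMSO vehicle wells, with the SYK inhibitor BAY61-3606 as reference neuroprotective control.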
Test system: rat primary cerebellar neuron-glia coculture
Experiment: live neuron count (NeuO+) per image field (cells per field); higher = more surviving neurons
Details: LPS 0 ng/mL; 1 µM; treatment time 3 days
Experimental: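 Primary rat (P3-7) cerebellar neuron-glia cocultures in 384-well plates were treated at DIV7 with 1 uM compound, then with or without 100 ng/mL LPS 30 min later, for 3 days. At DIV10 live cells were stained with Hoechst 33342, NeuO (live neurons), IB4-AF594 (microglia) and DRAQ7 (necrotic cells) and imaged at 10x (4 fields per well, IN Cell Analyzer 6000). Cells were classified with Cellpose/CellProfiler plus a Random Trees classifier. Values are per-well mean counts per image field (raw, not min-max normalised) and the median microglial FormFactor per image. Three technical replicates per repeat across 4 biological repeats; DMSO and BAY61-3606 serve as controls.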

Row | Compound | live neuron count
1 | Cc1cc(NC(=O)NCCN2CCC(O)(Cc3ccccc3)CC2)c2ccccc2n1 | 2620 ± 540
2 | O=c1ccn([C@@H]2O[C@H](CO)[C@@H](O)[C@H]2O)c(=O)[nH]1 | 2720 ± 460
3 | Cc1noc(-c2ccc(CSCCC(=O)O)cc2)c1NC(=O)OC(C)c1ccccc1Cl (stereo not given) | 2530 ± 580
4 | O=C(Nc1ccc2c(c1)N(S(=O)(=O)c1ccc(F)cc1)CCC2)c1c(F)cccc1Cl | 2690 ± 390
5 | O=C(Nc1cc(C2CC2)[nH]n1)c1ccc(Br)cc1 | 2740 ± 420
6 | Cc1ncc(Cl)cc1NCc1ccc(C(=O)N[C@@H](CC2CCCC2)C(=O)NC2CC2)s1 | 2560 ± 400
7 | N#C[C@@H]1C[C@@H]2C[C@@H]2N1C(=O)[C@@H](N)C12CC3CC(CC(O)(C3)C1)C2 | 2590 ± 520
8 | CCc1nc(N)nc(N)c1-c1ccc(Cl)cc1 | 2480 ± 640
9 | O=c1[nH]c2cc(Cl)ccc2c(O)c1-c1cccc(Oc2ccccc2)c1 | 2710 ± 400
10 | N#Cc1cn(-c2c[nH]n(-c3cc(N4CC(F)(F)C4)ncn3)c2=O)cn1 | 2580 ± 470
11 | O=C(C1CC1)N1CC[C@@H](Cc2n[nH]c(=O)n2-c2ccc(-c3ccc4occc4c3)cc2)C1 | 2650 ± 480
12 | CCN(CC)CCOC(=O)C1(c2ccccc2)CCCC1 | 2570 ± 570
13 | COc1cc2nc(N3CCN(C(=O)C4COc5ccccc5O4)CC3)nc(N)c2cc1OC (stereo not given) | 2460 ± 490
14 | COc1cc2c(cc1OCCCN1CCCC1)N=C(N)C21CCC1 | 2280 ± 740
15 | CC1(C)Cc2c(c(N3CCOCC3)nc3sc4c(NCCN5CCOCC5)ncnc4c23)CO1 | 2610 ± 410
16 | CCOc1ccc2oc(C(=O)NC(CCSC)c3nc4ccccc4[nH]3)c(C)c2c1 (stereo not given) | 2590 ± 450
17 | COC(=O)C1=C(C)NC(C)=C(C(=O)OC)C1c1ccccc1[N+](=O)[O-] | 2480 ± 280
18 | NS(=O)(=O)c1cc(C(=O)NCCOc2ccccc2)c(Cl)cc1Cl | 2610 ± 780
19 | COc1ccc(N2CCOCC2)c2sc(NC(=O)N3CCC(C)(O)CC3)nc12 | 2480 ± 750
20 | CC(C)(C)c1ccc(S(=O)(=O)Nc2ccc(Cl)cc2C(=O)c2cc[n+]([O-])cc2)cc1 | 2560 ± 480

Same assay, conditions: LPS 100 ng/mL; 1 µM; treatment time 3 days

Row | Compound | live neuron count
21 | Cc1cc(NC(=O)NCCN2CCC(O)(Cc3ccccc3)CC2)c2ccccc2n1 | 280 ± 310
22 | O=c1ccn([C@@H]2O[C@H](CO)[C@@H](O)[C@H]2O)c(=O)[nH]1 | 277 ± 190
23 | Cc1noc(-c2ccc(CSCCC(=O)O)cc2)c1NC(=O)OC(C)c1ccccc1Cl (stereo not given) | 431 ± 350
24 | O=C(Nc1ccc2c(c1)N(S(=O)(=O)c1ccc(F)cc1)CCC2)c1c(F)cccc1Cl | 404 ± 340
25 | O=C(Nc1cc(C2CC2)[nH]n1)c1ccc(Br)cc1 | 324 ± 340
26 | Cc1ncc(Cl)cc1NCc1ccc(C(=O)N[C@@H](CC2CCCC2)C(=O)NC2CC2)s1 | 349 ± 370
27 | N#C[C@@H]1C[C@@H]2C[C@@H]2N1C(=O)[C@@H](N)C12CC3CC(CC(O)(C3)C1)C2 | 1060 ± 540
28 | CCc1nc(N)nc(N)c1-c1ccc(Cl)cc1 | 2440 ± 510
29 | O=c1[nH]c2cc(Cl)ccc2c(O)c1-c1cccc(Oc2ccccc2)c1 | 423 ± 390
30 | N#Cc1cn(-c2c[nH]n(-c3cc(N4CC(F)(F)C4)ncn3)c2=O)cn1 | 561 ± 490
31 | O=C(C1CC1)N1CC[C@@H](Cc2n[nH]c(=O)n2-c2ccc(-c3ccc4occc4c3)cc2)C1 | 301 ± 240
32 | CCN(CC)CCOC(=O)C1(c2ccccc2)CCCC1 | 338 ± 290
33 | COc1cc2nc(N3CCN(C(=O)C4COc5ccccc5O4)CC3)nc(N)c2cc1OC (stereo not given) | 2370 ± 570
34 | COc1cc2c(cc1OCCCN1CCCC1)N=C(N)C21CCC1 | 265 ± 250
35 | CC1(C)Cc2c(c(N3CCOCC3)nc3sc4c(NCCN5CCOCC5)ncnc4c23)CO1 | 153 ± 160
36 | CCOc1ccc2oc(C(=O)NC(CCSC)c3nc4ccccc4[nH]3)c(C)c2c1 (stereo not given) | 532 ± 650
37 | COC(=O)C1=C(C)NC(C)=C(C(=O)OC)C1c1ccccc1[N+](=O)[O-] | 297 ± 240
38 | NS(=O)(=O)c1cc(C(=O)NCCOc2ccccc2)c(Cl)cc1Cl | 328 ± 400
39 | COc1ccc(N2CCOCC2)c2sc(NC(=O)N3CCC(C)(O)CC3)nc12 | 543 ± 540
40 | CC(C)(C)c1ccc(S(=O)(=O)Nc2ccc(Cl)cc2C(=O)c2cc[n+]([O-])cc2)cc1 | 403 ± 340
